In patent US20060240048A1 (priority 2002, published 2006):
Some entries share one result that the patent states for a list of compounds. At least one structure is not confirmed: it was looked up by name or label, or the drawing left a doubt.

Sequences of proteins named here, by UniProt entry; tags and fusion partners are left off.
UniProt P34972, whole entry: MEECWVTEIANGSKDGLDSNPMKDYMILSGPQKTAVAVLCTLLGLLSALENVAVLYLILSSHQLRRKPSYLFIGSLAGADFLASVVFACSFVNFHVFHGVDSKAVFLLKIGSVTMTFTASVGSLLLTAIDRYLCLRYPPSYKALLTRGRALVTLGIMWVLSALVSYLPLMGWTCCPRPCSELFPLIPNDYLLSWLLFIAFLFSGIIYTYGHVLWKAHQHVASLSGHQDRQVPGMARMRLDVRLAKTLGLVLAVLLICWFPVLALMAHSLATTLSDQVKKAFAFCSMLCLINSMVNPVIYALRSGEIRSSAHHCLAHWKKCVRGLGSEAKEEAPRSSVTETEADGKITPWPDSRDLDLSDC

Target: T1, human cannabinoid CB2 receptor (Homo sapiens, UniProt P34972)
T1 construct: expressed in transfected cells; host or cells: Saccharomyces cerevisiae strain MMY23
Test: Cannabinoid CB2 receptor agonist activity, yeast reporter assay (FDGlu fluorescence)
Type: cell-based
Conditions: for efficacy value (Emax) at the cloned human cannabinoid CB2 receptor: Emax relative to HU210; for EC50: yeast (S. cerevisiae) expressing human CB2, agonist, read-out: EC50 at the cloned human cannabinoid CB2 receptor
Procedure: The cannabinoid CB2 receptor agonist activity of the compounds of formula (I) was determined in accordance with the following experimental method.
Yeast (Saccharomyces cerevisiae) cells expressing the human cannabinoid CB2 receptor were generated by integration of an expression cassette into the ura3 chromosomal locus of yeast strain MMY23. This cassette consisted of DNA sequence encoding the human CB2 receptor flanked by the yeast GPD promoter to the 5′ end of CB2 and a yeast transcriptional terminator sequence to the 3′ end of CB2. MMY23 expresses a yeast/mammalian chimeric G-protein alpha subunit in which the C-terminal 5 amino acids of Gpa1 are replaced with the C-terminal 5 amino acids of human Gαi3 (as described in Brown et al. (2000), Yeast 16:11-22). Cells were grown at 30° C. in liquid Synthetic Complete (SC) yeast media (Guthrie and Fink (1991), Methods in Enzymology, Vol. 194) lacking uracil, tryptophan, adenine and leucine to late logarithmic phase (approximately 6 OD600/ml).
Agonists were prepared as 10 mM stocks in DMSO. […] Agonist solutions in DMSO (1% final assay volume) were transferred into black, clear bottom, microtitre plates from NUNC (96- or 384-well). […] This mixture (50 ul per well for 384-well plates, 200 ul per well for 96-well plates) was added to agonist in the assay plates (Multidrop 384, Labsystems). After incubation at 30° C. for 24 hours, fluorescence resulting from degradation of FDGlu to fluorescein due to exoglucanase, an endogenous yeast enzyme produced during agonist-stimulated cell growth, was determined using a Spectrofluor microtitre plate reader (Tecan; excitation wavelength: 485 nm; emission wavelength: 535 nm). Fluorescence was plotted against compound concentration and iteratively curve fitted using a four parameter fit to generate a concentration effect value.
where Max[compound X] and Min[compound X] are the fitted maximum and minimum respectively from the concentration effect curve for compound X, and Max[HU210] and Min[HU210] are the fitted maximum and minimum respectively from the concentration effect curve for (6aR,10aR)-3-(1,1′-Dimethylheptyl)-6a,7,10,10a-tetrahydro-1-hydroxy-6,6-dimethyl-6H-dibenzo[b,d]pyran-9-methanol (HU210; available from Tocris). Equieffective molar ratio (EMR) values were calculated from the equation EMR=EC50 [compound X]/EC50 [HU210]
Where EC50 [compound X] is the EC50 of compound X and EC50 [HU210] is the EC50 of HU210.

## Cc1ccc(F)cc1Nc1cc(C(C)C)c(C(=O)NCC2CCOCC2)cn1 [Example 283, 6-(5-Fluoro-2-methyl-phenylamino)-4-isopropyl-N-(tetrahydro-pyran-4-ylmethyl)-nicotinamide]
  efficacy value (Emax) at the cloned human cannabinoid CB2 receptor: > 50%
  EC50: < 1000 nM

## Cc1ccc(F)c(Nc2cc(C(C)C)c(C(=O)NCC3CCOCC3)cn2)c1 [Example 282, 6-(2-Fluoro-5-methyl-phenylamino)-4-isopropyl-N-(tetrahydro-pyran-4-ylmethyl)-nicotinamide]
  efficacy value (Emax) at the cloned human cannabinoid CB2 receptor: > 50%
  EC50: < 1000 nM

## CC(C)c1cc(N(C)c2cccc(Br)c2)ncc1C(=O)NCC1CCOCC1 [Example 45, 6-[(3-Bromo-phenyl)-methyl-amino]-4-isopropyl-N-(tetrahydro-pyran-4-ylmethyl)-nicotinamide]
  efficacy value (Emax) at the cloned human cannabinoid CB2 receptor: > 50%
  EC50: < 1000 nM

## CC(C)c1cc(Nc2cc(F)ccc2Cl)ncc1C(=O)NCC1CCOCC1 [Example 280, 6-(2-Chloro-5-fluoro-phenylamino)-4-isopropyl-N-(tetrahydro-pyran-4-ylmethyl)-nicotinamide]
  efficacy value (Emax) at the cloned human cannabinoid CB2 receptor: > 50%
  EC50: < 1000 nM

## CC(C)c1cc(Nc2cccc(Cl)c2F)ncc1C(=O)NCC1CCOCC1 [Example 94, 6-(3-Chloro-2-fluoro-phenylamino)-4-isopropyl-N-(tetrahydro-pyran-4-ylmethyl)-nicotinamide]
  efficacy value (Emax) at the cloned human cannabinoid CB2 receptor: > 50%
  EC50: < 1000 nM

## CC(C)c1cc(Nc2ccc(Cl)cc2F)ncc1C(=O)NCC1CCOCC1 [Example 289, 6-(4-Chloro-2-fluoro-phenylamino)-4-isopropyl-N-(tetrahydro-pyran-4-ylmethyl)-nicotinamide]
  efficacy value (Emax) at the cloned human cannabinoid CB2 receptor: > 50%
  EC50: < 1000 nM

## Cc1ccc(Nc2cc(C(C)C)c(C(=O)NCC3CCOCC3)cn2)cc1C(F)(F)F [Example 301, 6-(4-Methyl-3-trifluoromethyl-phenylamino)-4-isopropyl-N-(tetrahydropyran-4-ylmethyl)-nicotinamide]
  efficacy value (Emax) at the cloned human cannabinoid CB2 receptor: > 50%
  EC50: < 1000 nM

## Cc1ccc(Cl)cc1Nc1cc(C(F)(F)F)c(C(=O)NCC2CCOCC2)cn1 [Example 176, N-(Tetrahydropyran-4-ylmethyl)-6-(2-methyl-5-chloro-phenylamino)-4-trifluoromethyl-nicotina]
  efficacy value (Emax) at the cloned human cannabinoid CB2 receptor: > 50%
  EC50: < 1000 nM

## Cc1ccc(Nc2cc(C(C)C)c(C(=O)NCC3CCOCC3)cn2)cc1C [Example 101, 6-(3,4-Dimethyl-phenylamino)-4-isopropyl-N-(tetrahydro-pyran-4-ylmethyl)-nicotinamide]
  efficacy value (Emax) at the cloned human cannabinoid CB2 receptor: > 50%
  EC50: < 1000 nM

## CC(C)c1cc(Nc2cccc(Cl)c2)ncc1C(=O)NC1CCS(=O)(=O)C1 (centres unmarked) [Example 62, 6-(3-Chloro-phenylamino)-N-(1,1-dioxo-tetrahydro-1/^6-thiophen-3-yl)-4-isopropyl-nicotinamide]
  efficacy value (Emax) at the cloned human cannabinoid CB2 receptor: > 50%
  EC50: < 1000 nM
